Data from patent US10159726B2, “Peptides, combination of peptides and scaffolds for use in immunotherapeutic treatment of various cancers” (Immatics Biotechnologies GmbH, priority 2015, dated 2018).
For some assays here: Expression values are those of the mRNA of the gene that encodes the peptide; a gene is named only where it was looked up.

Tests used:
Design in all cases: species or system human
[1] = system: HLA-A*02 molecules of primary tumors; assay: Identification and relative LC-MS quantitation of HLA-A*02 tumor-associated peptides presented on tissue samples (XPRESIDENT presentation profiles)
[2] = system: source genes of selected peptides; assay: Target coverage of source genes in tumor entities based on TCGA Research Network data; settings: over-expressed = more than 2-fold above the highest 75% percentile of normal organs; for Target coverage, over-expression category of source gene, PCPG (N = 184): Pheochromocytoma and paraganglioma; for Target coverage, over-expression category of source gene, BLCA (N = 408): Bladder urothelial carcinoma; for Target coverage, over-expression category of source gene, HNSC (N = 521): Head and neck squamous cell carcinoma
[3] = system: source genes of selected peptides; assay: Expression profiling of source genes by in-house RNAseq, tumor vs normal tissues (target coverage); settings: for Target coverage, over-expression of source gene, AML: AML (N = 7), over-expression = more than 1.5-fold higher expression on tumor vs highest-expressing relevant normal tissue; for Target coverage, over-expression of source gene, AML / Target coverage, over-expression of source gene, BRCA / Target coverage, over-expression of source gene, CLL / Target coverage, over-expression of source gene, CRC / Target coverage, over-expression of source gene, GB / Target coverage, over-expression of source gene, HCC / Target coverage, over-expression of source gene, OC / Target coverage, over-expression of source gene, OSCAR / Target coverage, over-expression of source gene, PC / Target coverage, over-expression of source gene, RCC / Target coverage, over-expression of source gene, SCLC / Target coverage, over-expression of source gene, pNSCLC: in-house RNASeq; for Target coverage, over-expression of source gene, BRCA: BRCA (N = 10); for Target coverage, over-expression of source gene, BRCA / Target coverage, over-expression of source gene, CLL / Target coverage, over-expression of source gene, CRC / Target coverage, over-expression of source gene, GB / Target coverage, over-expression of source gene, HCC / Target coverage, over-expression of source gene, OC / Target coverage, over-expression of source gene, OSCAR / Target coverage, over-expression of source gene, PC / Target coverage, over-expression of source gene, RCC / Target coverage, over-expression of source gene, SCLC / Target coverage, over-expression of source gene, pNSCLC: over-expression = more than 1.5-fold vs highest normal tissue; for Target coverage, over-expression of source gene, CLL: CLL (N = 10); for Target coverage, over-expression of source gene, CRC: CRC (N = 20); for Target coverage, over-expression of source gene, GB: GB (N = 24); for Target coverage, over-expression of source gene, HCC: HCC (N = 15); for Target coverage, over-expression of source gene, OC: OC (N = 12); for Target coverage, over-expression of source gene, OSCAR: OSCAR (N = 11); for Target coverage, over-expression of source gene, PC: PC (N = 26); for Target coverage, over-expression of source gene, RCC: RCC (N = 10); for Target coverage, over-expression of source gene, SCLC: SCLC (N = 10); for Target coverage, over-expression of source gene, pNSCLC: pNSCLC (N = 11)
[4] = Table 8A: selected HLA-A*02-binding tumor-associated peptides, cancer entities on which the peptide was found presented
[5] = Table 8B: selected HLA-A*02 peptides, presentation on additional cancer entities

Row | Substance | Peptide Presentation on cancer entities [1, 4] | Peptide Presentation on cancer entities [1, 5] | Target coverage, over-expression of source gene, AML [3] | Target coverage, over-expression of source gene, BRCA [3] | Target coverage, over-expression of source gene, CLL [3] | Target coverage, over-expression of source gene, CRC [3] | Target coverage, over-expression of source gene, GB [3] | Target coverage, over-expression of source gene, HCC [3] | Target coverage, over-expression of source gene, OC [3] | Target coverage, over-expression of source gene, OSCAR [3] | Target coverage, over-expression of source gene, PC [3] | Target coverage, over-expression of source gene, RCC [3] | Target coverage, over-expression of source gene, SCLC [3] | Target coverage, over-expression of source gene, pNSCLC [3] | also measured
1 | 38: peptide found in CACNA2D1 (gene looked up) (KMQEDLVTL; listed as Homo sapiens) [compound 38] | NSCLC, RCC, OC, GC, GBC_CCC, OSCAR, clPC, GB, BRCA, PCA, PC, UEC, HCC, CRC, SCLC, NHL | MEL, AML | – | – | – | – | – | – | – | – | – | – | – | – | Target coverage, over-expression category of source gene, PCPG (N = 184) [2]: C (>=5% of tumors above the cutoff, but <20%)
2 | 40: peptide found in CLDN6 (gene looked up) (SLLALPQDLQA; listed as Homo sapiens) [compound 40] | PCA, NSCLC, CRC, UBC, OC | GBC_CCC, BRCA, UTC | – | – | – | – | – | – | – | – | – | – | – | – | Target coverage, over-expression category of source gene, BLCA (N = 408) [2]: C (>=5% of tumors above the cutoff, but <20%); Target coverage, over-expression category of source gene, CESC (N = 307) ([2]; Cervical squamous cell carcinoma and endocervical adenocarcinoma): C (>=5% of tumors above the cutoff, but <20%); Target coverage, over-expression category of source gene, CHOL (N = 36) ([2]; Cholangiocarcinoma): A (>=50% of tumors above the cutoff); Target coverage, over-expression category of source gene, HNSC (N = 521) [2]: C (>=5% of tumors above the cutoff, but <20%); Target coverage, over-expression category of source gene, MESO (N = 87) ([2]; Mesothelioma): C (>=5% of tumors above the cutoff, but <20%); Target coverage, over-expression category of source gene, PCPG (N = 184) [2]: C (>=5% of tumors above the cutoff, but <20%); Target coverage, over-expression category of source gene, STAD (N = 415) ([2]; Stomach adenocarcinoma): C (>=5% of tumors above the cutoff, but <20%); Target coverage, over-expression category of source gene, TGCT (N = 156) ([2]; Testicular germ cell tumors): A (>=50% of tumors above the cutoff); Target coverage, over-expression category of source gene, THYM (N = 120) ([2]; Thymoma): C (>=5% of tumors above the cutoff, but <20%); Target coverage, over-expression category of source gene, THCA (N = 513) ([2]; Thyroid carcinoma): A (>=50% of tumors above the cutoff); Target coverage, over-expression category of source gene, UCS (N = 57) ([2]; Uterine carcinosarcoma): A (>=50% of tumors above the cutoff); Target coverage, over-expression category of source gene, UCEC (N = 546) ([2]; Uterine corpus endometrial carcinoma): B (>=20% of tumors above the cutoff, but <50%)
3 | 92: peptide found in IGFBP3 (gene looked up) (LLRGPPVARA; listed as Homo sapiens) [compound 92] | clPC, PC, RCC, UBC, OSCAR | – | – | – | – | – | – | – | – | – | – | – | – | – | Target coverage, over-expression category of source gene, BLCA (N = 408) [2]: B (>=20% of tumors above the cutoff, but <50%); Target coverage, over-expression category of source gene, HNSC (N = 521) [2]: C (>=5% of tumors above the cutoff, but <20%); Target coverage, over-expression category of source gene, KIRP (N = 291) ([2]; Kidney renal papillary cell carcinoma): C (>=5% of tumors above the cutoff, but <20%)
4 | 329: peptide found in ABCC2 (gene looked up) (FAWEPSFRDQV; listed as Homo sapiens) [compound 329] | SCLC, HCC | GBC_CCC | I (<19% over-expression = I) | I (<19% over-expression = I) | I (<19% over-expression = I) | I (<19% over-expression = I) | I (<19% over-expression = I) | III (50-69% = III) | I (<19% over-expression = I) | I (<19% over-expression = I) | I (<19% over-expression = I) | I (<19% over-expression = I) | I (<19% over-expression = I) | I (<19% over-expression = I) | –
5 | 331: peptide found in RIF1 (gene looked up) (AIWKELISL; listed as Homo sapiens) [compound 331] | GB, CRC | MEL, CLL, NSCLC | I (<19% over-expression = I) | I (<19% over-expression = I) | I (<19% over-expression = I) | I (<19% over-expression = I) | II (20-49% = II) | I (<19% over-expression = I) | I (<19% over-expression = I) | I (<19% over-expression = I) | I (<19% over-expression = I) | I (<19% over-expression = I) | III (50-69% = III) | I (<19% over-expression = I) | Target coverage for source genes of selected peptides, GBC_CCC (N = 10) ([3]; gallbladder adenocarcinoma and cholangiocarcinoma, share of tumors with more than 1.5-fold higher expression than the highest-expressing relevant normal tissue, in-house RNAseq): I (<19% over-expression = I); Target coverage for source genes of selected peptides, GC (N = 11) ([3]; gastric cancer, share of tumors with more than 1.5-fold higher expression than the highest-expressing relevant normal tissue, in-house RNAseq): I (<19% over-expression = I); Target coverage for source genes of selected peptides, HNSCC (N = 10) ([3]; head and neck small cell carcinoma, share of tumors with more than 1.5-fold higher expression than the highest-expressing relevant normal tissue, in-house RNAseq): II (20-49% = II); Target coverage for source genes of selected peptides, MEL (N = 10) ([3]; melanoma, share of tumors with more than 1.5-fold higher expression than the highest-expressing relevant normal tissue, in-house RNAseq): I (<19% over-expression = I); Target coverage for source genes of selected peptides, NHL (N = 10) ([3]; non-Hodgkin lymphoma, share of tumors with more than 1.5-fold higher expression than the highest-expressing relevant normal tissue, in-house RNAseq): I (<19% over-expression = I); Target coverage for source genes of selected peptides, PCA (n = 10) ([3]; prostate cancer and benign prostate hyperplasia, share of tumors with more than 1.5-fold higher expression than the highest-expressing relevant normal tissue, in-house RNAseq): I (<19% over-expression = I); Target coverage for source genes of selected peptides, UBC (N = 10) ([3]; urinary bladder cancer, share of tumors with more than 1.5-fold higher expression than the highest-expressing relevant normal tissue, in-house RNAseq): I (<19% over-expression = I); Target coverage for source genes of selected peptides, UTC (N = 10) ([3]; uterine cancer, share of tumors with more than 1.5-fold higher expression than the highest-expressing relevant normal tissue, in-house RNAseq): I (<19% over-expression = I)
6 | 337: peptide found in LRBA (gene looked up) (KVLGKIEKV; listed as Homo sapiens) [compound 337] | RCC, CRC | – | I (<19% over-expression = I) | II (20-49% = II) | I (<19% over-expression = I) | I (<19% over-expression = I) | I (<19% over-expression = I) | I (<19% over-expression = I) | I (<19% over-expression = I) | I (<19% over-expression = I) | I (<19% over-expression = I) | I (<19% over-expression = I) | II (20-49% = II) | I (<19% over-expression = I) | –
7 | 338: peptide found in LRBA (gene looked up) (LLYDGKLSSA; listed as Homo sapiens) [compound 338] | – | CRC, UBC, OC | I (<19% over-expression = I) | II (20-49% = II) | I (<19% over-expression = I) | I (<19% over-expression = I) | I (<19% over-expression = I) | I (<19% over-expression = I) | I (<19% over-expression = I) | I (<19% over-expression = I) | I (<19% over-expression = I) | I (<19% over-expression = I) | II (20-49% = II) | I (<19% over-expression = I) | –
